Among the data in PubChem BioAssay AID248 (DTP/NCI, 2004) are survivor count and T/C values, retold here.

For this assay, the system named is L1210 leukemia ip in BDF1 mice, survival T/C. Put plainly: NCI In Vivo Anticancer Drug Screen. Data for tumor model L1210 Leukemia (intraperitoneal) in B6D2F1 (BDF1) mice. The note with it: T/C endpoint: mean survival time, higher T/C = longer survival.
Setting [1] is: dose: 80.0 mg/kg/injection, schedule: Q01DX001 (ip), vehicle: saline.
Where [2] appears, read: dose: 100.0 mg/kg/injection, schedule: Q01DX001 (ip), vehicle: saline.
Setting [3] is: dose: 200.0 mg/kg/injection, schedule: Q01DX001 (ip), vehicle: saline.
The mark [4] stands for this setting: dose: 400.0 mg/kg/injection, schedule: Q01DX001 (ip), vehicle: saline.
The mark [5] stands for this setting: dose: 150.0 mg/kg/injection, schedule: Q01DX001 (ip), vehicle: carboxymethylcellulose (CMC).
[6] abbreviates: dose: 200.0 mg/kg/injection, schedule: Q04DX003 (ip), vehicle: Klucel (hydroxypropylcellulose) (HPC).
[7] abbreviates: dose: 400.0 mg/kg/injection, schedule: Q04DX003 (ip), vehicle: Klucel (hydroxypropylcellulose) (HPC).
Setting [8] is: dose: 75.0 mg/kg/injection, schedule: Q01DX001 (ip), vehicle: saline.
[9] abbreviates: dose: 150.0 mg/kg/injection, schedule: Q01DX001 (ip), vehicle: saline.
[10] abbreviates: dose: 300.0 mg/kg/injection, schedule: Q01DX001 (ip), vehicle: saline.
Where [11] appears, read: dose: 200.0 mg/kg/injection, schedule: Q01DX009 (ip), vehicle: saline.
Setting [12] is: dose: 400.0 mg/kg/injection, schedule: Q04DX003 (ip), vehicle: saline.
Where [13] appears, read: dose: 100.0 mg/kg/injection, schedule: Q01DX009 (ip), vehicle: carboxymethylcellulose (CMC).

The list does not hold the whole screen: it gathers tests that were run many times, whatever their T/C, doses with no T/C, and many T/C values between a quarter and a half above the control. Further doses and runs are listed elsewhere. T/C is the treated group as % of the vehicle group. Some doses have a count of surviving animals in place of a T/C: the source files T/C as zero there, which appears to mark a toxic dose or a test without result, not a measured value. Some survivor counts are full or nearly so, which does not show that the dose was tolerated: the source hardly ever lists a survival T/C far under the control, and the zero likely stands for such cases as well. Survivors were counted at the toxicity check, usually on the fifth day, unless a day is given; later deaths do not show. Schedule codes are those of the source, taken here to give the interval after Q, in days (D) or hours (H), and the number of doses after X. Some doses were run more than once; the results are listed from low to high. Some schedules carry Z or #; the key to these is not given. For survival time, the PubChem record calls one and a half times the control and up active, and a quarter to a half above the control has no call in these data; cut-offs in other NCI protocols can differ.

Consider `O=C(O)c1ccc(N/N=C\c2cc(=O)[nH]c(=O)[nH]2)cc1`, for which the survivor count is recorded as 0 of 4 under setting [1], 1 of 4 under setting [2], 1 of 4 under setting [3] and 2 of 4 under setting [4].
With `O=C1C=C(Nc2ccc(Cl)cc2)C(=O)c2ccccc21`, the survivor count under setting [5] is given as 6 of 6.
Take `BrCCCC[P+](c1ccccc1)(c1ccccc1)c1ccccc1`: the survivor count (dose: 100.0 mg/kg/injection, schedule: Q04DX003 (ip), vehicle: Klucel (hydroxypropylcellulose) (HPC)) is 0 of 3; the survivor count under setting [3] was 0 of 4; the survivor count under setting [6] is on record as 1 of 3; the survivor count under setting [4] is reported as 0 of 4; the survivor count under setting [7] was 0 of 3.
As to `O=C(COc1cc(Cl)c(Cl)cc1Cl)NO`, the survivor count under setting [7] was 2 of 6.
Regarding `COc1ccc2c3c1O[C@H]1C(O)C=C[C@H]4[C@@H](C2)N(C)CC[C@]314` (stereo partly drawn), the survivor count under setting [4] is on record as 0 of 6.
As for `CCOP(=O)(OCC)O/N=C(/C)c1cccc([N+](=O)[O-])c1`, the survivor count by setting is: (dose: 20.0 mg/kg/injection, schedule: Q01DX001 (ip), vehicle: saline) 0 of 6; (dose: 40.0 mg/kg/injection, schedule: Q01DX001 (ip), vehicle: saline) 0 of 6; under setting [8], 0 of 6; under setting [1], 0 of 6; under setting [9], 0 of 6; under setting [10], 0 of 6.
`COC(=O)C1=NC=NC1=[N+]=[N-]`: the survivor count under setting [8] was 0 of 6, the survivor count under setting [9] is 0 of 6 and the survivor count under setting [10] is given as 0 of 6.
As for `O=C(COc1ccc(Cl)c(Cl)c1)NCc1ccc[n+](Cc2ccc(S(=O)(=O)F)cc2)c1`, the survivor count was 2 of 6 under setting [6] and 0 of 6 under setting [7].
`NC(N)=NN=C(c1ccccc1)c1ccccc1`: the survivor count (dose: 120.0 mg/kg/injection, schedule: Q01DX Z (ip), vehicle: other) is 0 of 6.
As for `CN1CCN(CCSC(=O)C(O)(c2ccccc2)C2CCCC2)CC1` (stereo not drawn), the survivor count runs as follows: under setting [8], 2 of 6; under setting [10], 0 of 6.
Turning to `C=C1CC(CCCCCC2CC(=C)C(=O)O2)OC1=O` (stereo not drawn), the survivor count (dose: 100.0 mg/kg/injection, schedule: Q04DX002 (ip), vehicle: saline) is given as 3 of 3; the survivor count (dose: 200.0 mg/kg/injection, schedule: Q04DX002 (ip), vehicle: saline) was 3 of 3; the survivor count (dose: 400.0 mg/kg/injection, schedule: Q04DX002 (ip), vehicle: saline) is recorded as 2 of 3.
Take `CC(C)(C)OC(=O)CCN1CC1`: the survivor count under setting [10] is listed as 0 of 6.
`C[CH2][Hg][Cl]`: the survivor count runs as follows: (dose: 50.0 mg/kg/injection, schedule: Q04DX002 (ip), vehicle: Klucel (hydroxypropylcellulose) (HPC)) 1 of 3; (dose: 100.0 mg/kg/injection, schedule: Q04DX002 (ip), vehicle: Klucel (hydroxypropylcellulose) (HPC)) 1 of 3; under setting [3], 2 of 4; (dose: 200.0 mg/kg/injection, schedule: Q04DX002 (ip), vehicle: Klucel (hydroxypropylcellulose) (HPC)) 2 of 3; under setting [4], 0 of 4; (dose: 400.0 mg/kg/injection, schedule: Q04DX002 (ip), vehicle: Klucel (hydroxypropylcellulose) (HPC)) 1 of 3.
`COc1ccc(Cc2nccc3c(OC)c(OC)ccc23)cc1OC`: the survivor count under setting [11] is listed as 4 of 6 and the survivor count under setting [12] is reported as 0 of 6.
Regarding `OC[CH2][Hg][Cl]`, the survivor count is given as 4 of 6 (dose: 6.25 mg/kg/injection, schedule: Q01DX009 (ip), vehicle: saline); 0 of 3 (dose: 100.0 mg/kg/injection, schedule: Q04DX002 (ip), vehicle: saline with Tween-80); 0 of 3 (dose: 200.0 mg/kg/injection, schedule: Q04DX002 (ip), vehicle: saline with Tween-80); 0 of 3 (dose: 400.0 mg/kg/injection, schedule: Q04DX002 (ip), vehicle: saline with Tween-80).
For `CCNCCNC`, the survivor count is 5 of 6 under setting [11] and 1 of 6 under setting [12].
Take `Cc1ccc(C(C)C)c(OCCNC2=NCCN2)c1`: the survivor count (dose: 100.0 mg/kg/injection, schedule: Q04DX003 (ip), vehicle: saline) is 4 of 6; the survivor count (dose: 200.0 mg/kg/injection, schedule: Q04DX003 (ip), vehicle: saline) is reported as 0 of 6; the survivor count under setting [12] is reported as 0 of 6.
For `Cc1cc(O)c(C(C)C)cc1N(C)C` (tested in a mixture with another compound), the survivor count reads like this: under setting [2], 0 of 6; under setting [3], 0 of 6; under setting [4], 0 of 6.
With `C[n+]1ccc(/C=C\c2ccc3c(c2)OCO3)cc1`, the survivor count under setting [9] is recorded as 3 of 6 and the survivor count under setting [10] is 3 of 6.
As for `CCOc1cc(/C=N\Nc2nncn2N)c(C)cc1N(CCCl)CCCl`, the T/C was 134 % of control (dose: 2.2 mg/kg/injection, schedule: Q01DX015 (ip), vehicle: carboxymethylcellulose (CMC)); 125 % of control (dose: 3.4 mg/kg/injection, schedule: Q01DX015 (ip), vehicle: carboxymethylcellulose (CMC)); 112, 126, 130, 140 % of control (dose: 5.2 mg/kg/injection, schedule: Q01DX015 (ip), vehicle: carboxymethylcellulose (CMC)); 129 and 135 % of control (dose: 9.0 mg/kg/injection, schedule: Q01DX015 (ip), vehicle: carboxymethylcellulose (CMC)); 129 % of control (dose: 33.0 mg/kg/injection, schedule: Q01DX001 (ip), vehicle: carboxymethylcellulose (CMC)); 132 % of control (dose: 50.0 mg/kg/injection, schedule: Q01DX001 (ip), vehicle: carboxymethylcellulose (CMC)). Further, the T/C (dose: 75.0 mg/kg/injection, schedule: Q01DX001 (ip), vehicle: carboxymethylcellulose (CMC)) is 126 % of control. The survivor count runs as follows: (dose: 25.0 mg/kg/injection, schedule: Q01DX015 (ip), vehicle: carboxymethylcellulose (CMC)) 6 of 6; (dose: 400.0 mg/kg/injection, schedule: Q01DX001 (ip), vehicle: carboxymethylcellulose (CMC)) 1 of 4.
Take `COc1cc(NC(=O)Nc2ccc(Cl)c(C(F)(F)F)c2)ccc1NC(C)=O`: the T/C runs as follows: under setting [13], 87, 88, 91 % of control; (dose: 200.0 mg/kg/injection, schedule: Q01DX009 (ip), vehicle: carboxymethylcellulose (CMC)) 86, 90, 97, 99 % of control. In addition, the survivor count under setting [13] is reported as 3 of 3; the survivor count (dose: 400.0 mg/kg/injection, schedule: Q01DX009 (ip), vehicle: carboxymethylcellulose (CMC)) was 3 of 3 and 6 of 6.
Regarding `COc1cc(C=Nc2ccc(-c3csc(COc4ccccc4)n3)c(Cl)c2)ccc1N(CCCl)CCCl`, the T/C (dose: 44.4 mg/kg/injection, schedule: Q01DX001 (ip), vehicle: carboxymethylcellulose (CMC)) is 127 % of control; the T/C (dose: 66.6 mg/kg/injection, schedule: Q01DX001 (ip), vehicle: carboxymethylcellulose (CMC)) is 139 % of control; the T/C (dose: 100.0 mg/kg/injection, schedule: Q01DX001 (ip), vehicle: carboxymethylcellulose (CMC)) was 127 % of control; the T/C (dose: 100.0 mg/kg/injection, schedule: Q01DX001 (sc), vehicle: carboxymethylcellulose (CMC)) is 131 % of control; the T/C under setting [5] was 133 % of control. Besides, the survivor count (dose: 66.0 mg/kg/injection, schedule: Q01DX015 (ip), vehicle: carboxymethylcellulose (CMC)) was 4 of 6; the survivor count (dose: 100.0 mg/kg/injection, schedule: Q01DX015 (ip), vehicle: carboxymethylcellulose (CMC)) is reported as 5 of 6; the survivor count (dose: 400.0 mg/kg/injection, schedule: Q01DX001 (sc), vehicle: carboxymethylcellulose (CMC)) is 0 of 4.
